Results as given in patent US9067857B2, “Fluorine-containing aromatic compound and manufacturing method therefor” (Asahi Glass Company, Limited, priority 2012, dated 2015).

Assay: Semiconductor material and mobility evaluation (top-contact bottom-gate FET element)
Conditions: vacuum-deposited 70 nm film, FET evaluated under vacuum

With FC(F)(F)C(F)(F)C(F)(F)C(F)(F)C(F)(F)C(F)(F)c1c2ccccc2c(C(F)(F)C(F)(F)C(F)(F)C(F)(F)C(F)(F)C(F)(F)F)c2ccccc12 [Compound (e), 9,10-bis(perfluorohexyl)anthracene] the “Transistor conduction type of FET element” value was “n-type transistor element” and the “Carrier mobility (field effect mobility)” value (saturated region of current-voltage properties) was 9.1×10^−5 cm^2/V·s.
